The values below come from US20120214173A1, “Methods of Identifying Modulators of an Ehd Polypeptide” (priority 2007, published 2012).

For the experiment, the target named is selenomethionine-substituted EHD2 point mutant Q410A (crystallised with AMP-PNP) (mouse) (UniProt Q8BH64). The experiment can be described thus: crystal structure with AMP-PNP, 3.1 Å.

These are yes or no findings as the source states them, for the method shown. Some binding calls cover weakened binding; strength is not graded here.

B1: selenomethionine-substituted EHD2 point mutant Q410A (crystallised with AMP-PNP) (enzyme, mouse, UniProt Q8BH64 1-543, looked up)
chain: MFSWLKKGGARGQRPEAIRTVTSSLKELYRTKLLPLEEHYRFGSFHSPALEDADFDGKPMVLVAGQYSTGKTSFIQYLLEQEVPGSRVGPEPTTDCFVAVMHGETEGTVPGNALVVDPEKPFRKLNPFGNTFLNRFMCAQLPNQVLESISIIDTPGILSGAKQRVSRGYDFPAVLRWFAERVDLIILLFDAHKLEISDEFSEAIGALRGHEDKIRVVLNKADMVETQQLMRVYGALMWALGKVVGTPEVLRVYIGSFWSQPLLVPDNRRLFELEEQDLFRDIQGLPRHAALRKLNDLVKRARLVRVHAYIISYLKKEMPTVFGKENKKKQLILKLPVIFAKIQLEHHISPGDFPDCQKMQELLMAHDFTKFHSLKPKLLEALDDMLAQDIAKLMPLLRQEELESVEAGVAGGAFEGTRMGPFVERGPDEAIEDGEEGSEDDAEWVVTKDKSKYDEIFYNLAPADGKLSGSKAKTWMVGTKLPNSVLGRIWKLSDVDRDGMLDDEEFALASHLIEAKLEGHGLPTNLPRRLVPPSKRRQKGSAE
modifications: selenomethionine-substituted
Take B1: the binding entry is reported as “binds”.
